Source: PubChem BioAssay AID652272 (Drosophila RNAi Screening Center, 2013)
The screen tested about 21,000 reagents; this is a random part of those that have a named target and a result. Over the whole deposit, 503 (2.4%) got an active call. 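Raw plate light values, not normalised; calls rest on replicate z-scores that were not deposited; hits include reporter decreases as well as increases.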 A number with no mark means an inactive call. The numbers tell different reagents against one gene apart. Names joined by + are all predicted targets of the reagent. Not given: the amount of reagent, the time to read-out.

Screen: 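Genome-wide knock-down search for components of Hedgehog signalling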 (primary screen)
Cell system: Drosophila clone 8 (Cl8) cells
Reagents: long dsRNA against Drosophila genes
Measured: 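Firefly light from a Hedgehog-responsive ptc promoter reporter and Renilla reference light, both read on a plate reader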
Scale: firefly Hh reporter signal: higher = more ptc reporter light; Renilla reference signal: higher = more Renilla control light
Rule for the call: 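Called a hit if the two-replicate mean z-score lies below -2 or above +3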
Meaning of the calls: active = hit: reporter lowered or raised; inactive = not a hit

no.	gene	reagent	firefly Hh reporter signal, replicate 1	firefly Hh reporter signal, replicate 2	firefly Hh reporter signal, replicate 3	Renilla reference signal, replicate 1	Renilla reference signal, replicate 2
1	NimA (Nimrod A)	1	1.63e5	2.12e5		3376	8256
2	Tsp74F (Tetraspanin 74F)	1	1.75e5			2629	7472
3	CG3045	1	79699	83603		3248	3284
4	CR43096 + CG43060	1	2.94e5			5579	
5	CG7191	1	87905	51016		1904	4453
6	Rab9Db + Rab9D + Rab9E	1	5.71e5	2.04e5		32093	4834
7	ms(3)76Ba (male sterile (3) 76Ba)	1	82300	83459		3153	2155
8	Epac (Exchange protein directly activated by cAMP)	1	5.86e5	1.11e5		4560	4560
9	Epac (Exchange protein directly activated by cAMP)	2	1.12e5	94795		4961	3814
10	Epac (Exchange protein directly activated by cAMP)	3	73133	34756		2112	2585
11	CG3097	1	93877	2.09e5		3363	7306
12	CG31115	1	59696	1.58e5		13904	3509
13	CG31681	1	5.74e5	2.96e5		32793	12234
14	CG9577	1	1.51e5	3.61e5		5424	14272
15	Ptp36E (Protein tyrosine phosphatase 36E)	1	2.05e5	73069		4770	4105
16	l(3)neo38 (lethal (3) neo38)	1	1.52e5	5.17e5	1.49e5	3101	3344
17	l(3)neo38 (lethal (3) neo38)	2	75873	88209		2624	2368
18	Cdc27 (Cell division cycle 27)	1	86628	51824		4065	2348
19	Syt1 (Synaptotagmin 1)	1	6.80e5	3.14e5		32922	11478
20	Syt1 (Synaptotagmin 1)	2	7.23e5	3.05e5		38816	12437
21	Syt1 (Synaptotagmin 1)	3	5.38e5	2.11e5		28032	9271
22	Syt1 (Synaptotagmin 1)	4	1.15e5	70292		6037	3890
23	CG11050	1	66310	44118		3129	1369
24	arm (armadillo)	1	1.08e5	81223		2933	3156
25	dhd (deadhead)	1	1.40e5	1.12e5		3195	2836
26	Sgs4 (Salivary gland secretion 4)	1	1.00e5	2.97e5		3732	10922
27	CG7016	1	6.44e5	1.41e5		33136	3987
28	dan (distal antenna)	1	88706	51341		2753	1450
29	CG2111	1	46432	2.28e5		1538	8370
30	Rsph1 (Radial spoke head protein 1)	1	1.12e5	61936		2641	5089
31	Hnf4 (Hepatocyte nuclear factor 4)	1	7.43e5	3.59e5		34384	13516
32	Hnf4 (Hepatocyte nuclear factor 4)	2	4.57e5	56944		3437	3437
33	CG4935	1	92541	77558		2471	5488
34	Hsc70-5 (Heat shock protein 70 cognate 5)	1	1.17e5	88948		5131	4010
35	CG13454	1	5.44e5	80724		3576	3576
36	Ran-like	1	99126	51232		3897	2136
37	CG11529	1	83241	31211	38741	3521	3299
38	CG9953	1	37255	49292		203	3085
39	CG10738	1	52482	35297	40544	4172	3171
40	nord	1	78128	52168		2144	4436
41	nord	2	60988	34418		2123	3543
42	CG15478	1	1.08e5	4.24e5		1588	16464
43	Rh5 (Rhodopsin 5)	1	57096	38128		2496	1674
44	CG18666	1	1.15e5	69174		3522	7075
45	aralar1	1	4.57e5	1.87e5		23008	3318
46	aralar1	2	86617	66497		1907	1970
47	CG16721	1	1.26e5	1.30e5		2546	3195
48	CG6409	1	1.64e5	7.50e5	1.33e5	6806	41480
49	woc (without children)	1	93660	63116		2144	1657
50	Hk (Hyperkinetic)	1	6.30e5	2.79e5		31104	4201
51	Hk (Hyperkinetic)	2	3.09e5	1.22e5		21174	3161
52	Hk (Hyperkinetic)	3	62837	42044		2129	1205
53	Hk (Hyperkinetic)	4	73914 (active)	1.51e5		1408	3808
54	Den1 (Deneddylase 1)	1	1.24e5	58042		2857	4389
55	DIP2 (DISCO Interacting Protein 2)	1	81857	85576		4423	3545
56	Vajk4	1	1.07e5	85538		5050	3287
57	Vajk4	2	88909	37194		2202	3805
58	CG11658	1	36013	54732	53101	6855	4144
59	Lrch (Leucine-rich-repeats and calponin homology domain protein)	1	1.24e5	77563		4425	2547
60	CG33325	1	1.30e5			2824	
61	M6	1	63194	98272		2197	2416
62	Vps2 (Vacuolar protein sorting 2)	1	88279	69941		2011	1785
63	Cnx99A + Cnx14D	1	75017	95372		2561	3117
64	dome (domeless)	1	85517	71938		1925	1440
65	CG34202	1	82365	1.93e5		2077	8983
66	Usf	1	91623	2.64e5		3783	10144
67	CG34199	1	1.01e5	2.46e5		2802	9814
68	CG13679	1	79336	6.11e5	57239	4292	3682
69	Vm26Aa (Vitelline membrane 26Aa)	1	1.67e5	51305		4247	5488
70	CG33170	1	1.07e5	1.66e5		3061	4288
71	CG3984	1	1.65e5	1.55e5		6235	4459
72	S-Lap7 (Sperm-Leucylaminopeptidase 7)	1	72497	65080		1975	5123
73	CG30095	1	74779	39725		2081	3253

Active calls, of those listed so far:
gene	reagent	firefly Hh reporter signal, replicate 1	firefly Hh reporter signal, replicate 2	firefly Hh reporter signal, replicate 3	Renilla reference signal, replicate 1	Renilla reference signal, replicate 2
Hk (Hyperkinetic)	4	73914 (active)	1.51e5		1408	3808
